Experimental data: patent US20260234196A1 (priority 2021, published 2026)
Not every detail of the peptide structures is certain; ends, links or a residue may be inferred. Ends that are not written are not given here. Peptide text beside a SMILES is read from it.

How the values were obtained:
SARS-CoV-2 pseudovirus = assay type: cell-based
[1] = molecular target: RBD protein binding to A549 cells (Severe acute respiratory syndrome coronavirus 2, UniProt P0DTC2); assay type: cell-based, SARS-CoV-2
[2] = molecular target: S1 protein of SARS-CoV-2 binding to A549 cells (Severe acute respiratory syndrome coronavirus 2, UniProt P0DTC2); assay type: cell-based

CC(C)C[C@H](NC(=O)[C@@H](NC(=O)[C@H](CO)NC(=O)[C@H](CO)NC(=O)[C@H](CC(=O)O)NC(=O)[C@H](Cc1ccccc1)NC(=O)[C@@H](NC(=O)[C@H](CC(=O)O)NC(=O)[C@H](CCCNC(=N)N)NC(=O)[C@@H]1CCCN1C(=O)[C@H](Cc1ccc(O)cc1)NC(=O)[C@H](Cc1ccc(O)cc1)NC(=O)[C@@H](NC(=O)CNC(=O)[C@H](CC(=O)O)NC(=O)CNC(=O)[C@@H]1CCCN1C(=O)[C@@H]1CCCN1C(=O)[C@@H]1CCCN1C(=O)[C@@H]1CCCN1C(=O)[C@H](CS)NC(=O)[C@@H](N)CS)C(C)C)C(C)C)C(C)C)C(=O)N[C@@H](CC(=O)O)C(=O)N[C@@H](CO)C(=O)N[C@H](C(=O)N[C@@H](CCC(N)=O)C(=O)N[C@@H](CCCNC(=N)N)C(=O)O)[C@@H](C)O [KVp-N1] (H-CCPPPPGDGVYYPRDVFDSSVLDSTQR-OH)
neutralization ability to SARS-CoV-2 pseudovirus (SARS-CoV-2 pseudovirus): about 50% | RBD protein signal on A549 cells (Western Blot), different polypeptide concentrations [1]: inhibit the binding of RBD protein to A549 cells | RBD protein signal on A549 cells (Western Blot), single polypeptides vs polypeptide composition [1]: inhibit the binding of RBD protein to A549 cells | S1 protein signal on A549 cells (Western Blot), different polypeptide concentrations [2]: inhibit the binding of S1 protein to A549 cells | S1 protein signal on A549 cells (Western Blot), single polypeptides vs polypeptide composition [2]: inhibit the binding of S1 protein to A549 cells

CC[C@H](C)[C@H](NC(=O)[C@H](CCCNC(=N)N)NC(=O)[C@H](CC(=O)O)NC(=O)[C@H](CCCNC(=N)N)NC(=O)[C@H](Cc1ccccc1)NC(=O)[C@@H]1CCCN1C(=O)[C@H](CC(=O)O)NC(=O)[C@H](CC(C)C)NC(=O)[C@H](CC(N)=O)NC(=O)[C@H](CO)NC(=O)[C@H](CC(=O)O)NC(=O)[C@H](CC(=O)O)NC(=O)[C@H](Cc1ccccc1)NC(=O)[C@H](CC(C)C)NC(=O)[C@H](CC(=O)O)NC(=O)CNC(=O)[C@@H]1CCCN1C(=O)[C@@H]1CCCN1C(=O)[C@@H]1CCCN1C(=O)[C@@H]1CCCN1C(=O)[C@H](CS)NC(=O)[C@@H](N)CS)C(=O)N[C@@H](CO)C(=O)N[C@H](C(=O)N[C@@H](CCCNC(=N)N)C(=O)N[C@@H](CCCNC(=N)N)C(=O)O)[C@@H](C)O [KVp-R14] (H-CCPPPPGDLFDDSNLDPFRDRISTRR-OH)
neutralization ability to SARS-CoV-2 pseudovirus (SARS-CoV-2 pseudovirus): about 50% | RBD protein signal on A549 cells (Western Blot), different polypeptide concentrations [1]: inhibit the binding of RBD protein to A549 cells | RBD protein signal on A549 cells (Western Blot), single polypeptides vs polypeptide composition [1]: inhibit the binding of RBD protein to A549 cells | S1 protein signal on A549 cells (Western Blot), different polypeptide concentrations [2]: inhibit the binding of S1 protein to A549 cells | S1 protein signal on A549 cells (Western Blot), single polypeptides vs polypeptide composition [2]: inhibit the binding of S1 protein to A549 cells

GDGVYYPRDVFDSSVLDSTQR [KVp-N1N]
neutralization ability to SARS-CoV-2 pseudovirus (SARS-CoV-2 pseudovirus): about 50%

GDLFDDSNLDPFRDRISTRR [KVp-R14N]
neutralization ability to SARS-CoV-2 pseudovirus (SARS-CoV-2 pseudovirus): about 50%
